The values that follow come from PubChem BioAssay AID2685 (National Center for Advancing Translational Sciences (NCATS), 2010).

A short description of the experiment: qHTS Assay for Lipid Storage Modulators in Drosophila S3 Cells.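 For cell number change: cells counted by Cell Tracker Red CMTPX staining in the red channel.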 The following applies: BODIPY lipid droplet fluorescence, 18-24 h; for cell number change: measured here: cell count max response, cells fed with added oleic acid. In a few lines: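 Drosophila S3 cells loaded with oleic acid (400 uM, as added) and compounds at several concentrations; lipid droplets imaged by 488-nm laser-scanning cytometry, 500–530 nm intensity and object ratio to cell channel. Percent activity normalized to 20 uM Triacsin C.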
A general note: qHTS replaces the single test concentration by a dilution series.

Where [1] appears, read: measured here: cell number channel AC50, cells fed with added oleic acid.
Where [2] appears, read: measured here: lipid fluorescence (Fed channel) AC50, cells fed with added oleic acid.

The other results are listed elsewhere or left out. Shown are side measurements of this screen, not its main read-out; they come without a call. The list favours compounds with an active or inconclusive main result. Potencies come from curve fits of mixed quality, noted in brackets.

The AC50 is the midpoint of the concentration-response curve, whichever way the signal moves. A high value points to activity only at high concentration.

Consider `Cc1onc(-c2ccccc2)c1C(=O)OCCOc1ccccc1F`, for which the cell number change is -17.1%.

In the case of `CCSc1nc2c(sc3nc(C)cc(C)c32)c(=O)[nH]1`, the cell number change is -55%. Under setting [1], the half-maximal activity concentration (AC50) was 29.1 µM [falling, single point].

As to `COc1ccc(-c2nc(SC)n(C)c(=O)c2C#N)cc1OC`, the cell number change is -15.3%. The half-maximal activity concentration (AC50) under setting [2] is 1.46 µM [rising, full curve, poor fit].

In the case of `COc1ccc(CNC(=O)c2sc3nc4c(c(C(F)(F)F)c3c2N)CCC4)cc1`, the cell number change was determined as 114%. The AC50 under setting [1] is 29.1 µM [rising, single point]. Besides, the AC50 under setting [2] is 29.1 µM [rising, partial curve].

On to `CC(C)(C)OC(=O)NCCCCCNC(=O)c1[nH]cnc1C(=O)Nc1cccc(Cl)c1`, for which the cell number change is -32.5%. Also, under setting [1], the AC50 is 29.1 µM [falling, single point].

Turning to `Cc1ccc(C(=O)COC(=O)CCC(=O)NC2CCCCC2)cc1[N+](=O)[O-]`, the cell number change is -18.6%. In addition, under setting [1], the AC50 was 0.00461 µM [falling, full curve, poor fit]. Further, the half-maximal activity concentration (AC50) under setting [2] was 0.00651 µM [falling, full curve, poor fit].

With `CCOc1cc(C(=O)OC(C)C(=O)Nc2ncc(Cl)cc2Cl)ccc1OCC(=O)N1CCOCC1` (configuration not stated), the cell number change came to 17.5%. Besides, the concentration at half-maximal activity (AC50) under setting [2] was 2.91 µM [rising, single point].

Regarding `C/C(=N\Nc1nc(C)c(C)s1)c1ccc([N+](=O)[O-])cc1`, the concentration at half-maximal activity (AC50) under setting [2] was 0.731 µM [falling, single point].

On to `O=Nc1onc(-c2ccc([N+](=O)[O-])cc2)c1NO`, for which the cell number change was -34.6%. Moreover, under setting [1], the AC50 was 2.06 µM [falling, full curve, poor fit]. Under setting [2], the concentration at half-maximal activity (AC50) is 29.1 µM [falling, single point].

As for `C=CCn1c(O)c(N=Nc2nc3ccccc3c(=O)n2-c2ccccc2)c2ccccc21`, the cell number change was 34.9%. Besides, the half-maximal activity concentration (AC50) under setting [1] is 0.411 µM [rising, full curve, poor fit]. Also, the concentration at half-maximal activity (AC50) under setting [2] is 20.6 µM [rising, partial curve].

As for `Cc1ccnc(NC(=O)Nc2cccc(F)c2)c1`, the cell number change is -4.28%.

For `CCN1CCN(Cc2cc(=O)oc3ccc(Cl)cc23)CC1`, the cell number change was -3.32%. For the same compound, the AC50 under setting [2] was 0.206 µM [falling, full curve, poor fit].

`FC(F)(F)c1nc2ccccc2nc1N/N=C/c1ccc(Cl)cc1`: the cell number change is -84.2%. The half-maximal activity concentration (AC50) under setting [1] was 14.6 µM [falling, partial curve]. The AC50 under setting [2] is 14.6 µM [falling, partial curve].

Regarding `Clc1ccc(OCCN2CCOCC2)cc1`, the cell number change was -2.76%. The half-maximal activity concentration (AC50) under setting [2] was 6.51 µM [falling, single point].

Regarding `O=C(NCCN1C(=O)S/C(=C\c2cccnc2)C1=O)C1CC(=O)N(Cc2ccco2)C1` (configuration not stated), the half-maximal activity concentration (AC50) under setting [1] was 0.58 µM [rising, single point].

With `Cc1ccn2c(C=O)c(-c3ccc(F)cc3)c(C=O)c2c1`, the cell number change was 21.4%. The AC50 under setting [2] was 0.00517 µM [rising, full curve, poor fit].

`CCS(=O)(=O)N1CCN(CC2CC3C=CC2C3)CC1` (configuration not stated): the cell number change is 33.8%. Moreover, the AC50 under setting [2] is 0.82 µM [falling, full curve].

For `Cc1cccc(N2C(=O)C(O)=C(C(=O)c3cccs3)C2c2ccc(F)cc2)n1` (configuration not stated), the cell number change was -33.7%. The concentration at half-maximal activity (AC50) under setting [2] was 20.6 µM [falling, single point].

Consider `c1ccc(-c2nc(NCc3cccnc3)c3oc4ccccc4c3n2)cc1`, for which the cell number change worked out at 6.96%. The concentration at half-maximal activity (AC50) under setting [2] was 0.58 µM [rising, full curve].

As for `O=C1c2cccc3c(O)ccc(c23)C(=O)N1c1ccc(Cl)cc1`, the cell number change is -91.8%. The AC50 under setting [1] is 4.11 µM [falling, full curve]. The AC50 under setting [2] is 6.51 µM [falling, full curve].

With `N#CC1=C(N)C(C#N)(C#N)[C@H](c2c(F)cccc2F)[C@H]2CC3(CC=C12)OCCO3`, under setting [1], the AC50 was 1.3 µM [rising, partial curve].

For the compound `CC(=O)Nc1ccc(N2CCC(C)CC2)c([N+](=O)[O-])c1`, the cell number change is -19.2%. Also, under setting [2], the AC50 is 0.103 µM [falling, full curve].

In the case of `O=C(COc1ccccc1Cl)Nc1cc(NC(=O)COc2ccccc2Cl)cc(C(=O)O)c1`, the cell number change was -11.3%. Further, the AC50 under setting [2] was 29.1 µM [rising, single point].

Turning to `O=C(Nc1ccccc1)N(CCN1CCOCC1)Cc1ccccc1F`, the cell number change is 154%. Further, the AC50 under setting [1] is 14.6 µM [rising, partial curve].

For the compound `Cc1onc(-c2ccccc2)c1C(=O)Nc1ccc2c(c1)OCO2`, the cell number change is -12.8%. Moreover, under setting [2], the concentration at half-maximal activity (AC50) was 0.92 µM [rising, single point].

In the case of `COC(=O)[C@H](CC(C)C)NC(=O)Nc1ccccc1F`, the cell number change was -15.1%. In addition, the AC50 under setting [2] is 4.11 µM [falling, single point].

Regarding `O=C(CCCn1ncn2c(cc3occc32)c1=O)NCc1ccccc1F`, the cell number change is -29.5%. Also, the AC50 under setting [2] is 14.6 µM [falling, partial curve].

Turning to `CN1C(=O)c2ccc(C(=O)Nc3ccc4c(c3)OCO4)cc2C1=O`, the cell number change is -7.28%. For the same compound, the AC50 under setting [2] is 29.1 µM [falling, single point].

`Cc1cc(=O)oc2cc(OC(C)C)ccc12`: the cell number change worked out at 8.25%. In addition, the AC50 under setting [2] is 0.231 µM [falling, full curve, poor fit].

Turning to `O=C(C1CCC(CNc2c(N3CCCCC3)c(=O)c2=O)CC1)N1CCCC1` (configuration not stated), the cell number change is -21.3%. Also, the concentration at half-maximal activity (AC50) under setting [2] was 3.66 µM [falling, full curve].

Take `CC(Oc1ccc(F)cc1)C(=O)Nc1ccccc1C(=O)NC1CC1` (configuration not stated): the cell number change worked out at 67.1%. For the same compound, the half-maximal activity concentration (AC50) under setting [1] was 8.2 µM [rising, partial curve].

For the compound `Cc1ccc(C(=O)N/C(=C/c2ccco2)C(=O)NCCCn2ccnc2)cc1`, the cell number change was determined as 26.6%. Moreover, the AC50 under setting [2] is 29.1 µM [rising, single point].

With `CCC[C@@H](CN[C@@H](CNC)C(C)C)NCCCCc1ccccc1`, the cell number change stood at 0.599%. In addition, under setting [2], the AC50 was 6.51 µM [rising, single point].

For `CNC(=S)Nc1cccc2[nH]ncc12`, the cell number change worked out at 62.1%.

For the compound `CC(C)C(NC(=O)CSCc1ccc([N+](=O)[O-])cc1)C(C)C`, the cell number change is -11.9%. Further, under setting [2], the half-maximal activity concentration (AC50) was 29.1 µM [rising, single point].

For `Nc1c(C(=O)C2CC2)sc2nc(-c3cccs3)cc(C(F)(F)F)c12`, the AC50 by setting is: under setting [1], 1.3 µM [rising, partial curve]; under setting [2], 7.31 µM [falling, partial curve].

As for `CCc1noc(C)c1C(=O)NNC(=O)COc1ccc(Br)cc1`, the AC50 under setting [2] is 0.517 µM [falling, single point].

Consider `Cc1cc2cc(CNC(=S)NC3CCCCC3)ccc2n1C`, for which the cell number change is 8.5%. For the same compound, the AC50 under setting [2] was 0.82 µM [rising, full curve, poor fit].

Turning to `COc1ccccc1NC(=O)c1ccccc1S(=O)(=O)c1ccc([N+](=O)[O-])cc1`, the cell number change was -15.8%.

In the case of `Cc1ccc(-c2nc(SCC(=O)NCCN3C(=O)CSC3=O)[nH]c2-c2ccc(C)cc2)cc1`, the cell number change was -76.9%. Also, the half-maximal activity concentration (AC50) under setting [1] was 25.9 µM [falling, partial curve]. For the same compound, under setting [2], the AC50 is 23.1 µM [falling, partial curve, poor fit].

For the compound `CC(=O)Nc1cc(C(=O)NCc2ccco2)ccc1Sc1ccc(C)cc1`, the cell number change turned out to be 33%. Besides, the AC50 under setting [1] is 29.1 µM [rising, single point]. Besides, the AC50 under setting [2] was 29.1 µM [rising, single point].

As to `CCCc1nnc(NC(=O)Cn2c(=O)oc3cc(Br)ccc32)s1`, the cell number change is -5.48%.

Turning to `CC(OC(=O)CSc1ccc([N+](=O)[O-])cc1)C(=O)NCc1ccccc1` (configuration not stated), the cell number change was -11.1%.

Take `CCC(=O)Nc1c(C(=O)Nc2ccc3c(c2)OCCO3)oc2ccccc12`: the cell number change was -32.2%. Moreover, under setting [1], the concentration at half-maximal activity (AC50) was 32.6 µM [falling, single point]. Further, the half-maximal activity concentration (AC50) under setting [2] is 29.1 µM [falling, single point].

Regarding `Cc1ccccc1C1CC(c2cccs2)Nc2nnnn21` (configuration not stated), the cell number change is -13.5%. The half-maximal activity concentration (AC50) under setting [1] is 0.116 µM [falling, full curve, poor fit]. For the same compound, the half-maximal activity concentration (AC50) under setting [2] is 7.31 µM [falling, partial curve, poor fit].

Regarding `O=C(NCc1cccnc1)/C(=C/c1ccc(-c2ccc(Cl)cc2)o1)S(=O)(=O)c1ccccc1`, the cell number change is -24.4%. The AC50 under setting [2] is 23.1 µM [falling, single point].

`COc1cccc(CNCc2ccccn2)c1OC`: the cell number change was -105%. For the same compound, the half-maximal activity concentration (AC50) under setting [1] was 32.6 µM [falling, partial curve].

`Cc1nc2ccccc2n1C(=O)N(C)C`: the cell number change is -36%. Also, under setting [1], the AC50 is 32.6 µM [falling, single point].

For the compound `Cc1ccc(OCCNC(=O)c2ccc3c(c2)OCO3)cc1`, the cell number change stood at 40.1%. Besides, under setting [1], the AC50 was 1.03 µM [rising, full curve, poor fit]. In addition, the AC50 under setting [2] was 20.6 µM [rising, partial curve, poor fit].

As to `COc1cc(C2C(C#N)=C(N)Oc3c2ccc2ccccc32)ccc1OCC(=O)Nc1ccc(C)cc1` (configuration not stated), the cell number change was 10.3%.

Take `COc1ccc(CNC(=O)CN2C(=O)COc3ccc(S(=O)(=O)N4CCCCC4)cc32)cc1`: the cell number change amounted to 18.3%.

On to `[O-][N+]12CC[N+]([O-])(CC1)c1ccccc12`, for which the cell number change was -27.7%. Also, under setting [1], the half-maximal activity concentration (AC50) is 1.46 µM [falling, full curve, poor fit]. In addition, under setting [2], the AC50 is 0.731 µM [falling, single point].

Consider `CCC1CCCCN1CCCNC(=O)C(C)n1nc(C)c2sc3ccccc3c2c1=O` (configuration not stated), for which the AC50 under setting [2] was 2.31 µM [rising, partial curve].

`CNC(=O)c1c(NC(=O)c2ccc3ncsc3c2)sc(C)c1C`: the AC50 by setting is: under setting [1], 0.206 µM [rising, full curve]; under setting [2], 0.461 µM [rising, partial curve].

Regarding `COc1ccc(C(C)(C)C)cc1S(=O)(=O)n1ccnc1C`, the cell number change was found to be 12.7%. The AC50 under setting [2] is 25.1 µM [falling, partial curve].

For the compound `O=C(CCNC(=O)c1ccc(Cl)cc1)NN1C(=O)NC2(CCCCC2)C1=O`, the cell number change came out at 1.24%. Further, the AC50 under setting [2] is 0.164 µM [falling, full curve, poor fit].

With `O=c1oc2ccccc2cc1C1=Nn2c(nnc2-c2cccnc2)SC1`, the cell number change amounted to 40.8%. Further, the AC50 under setting [1] is 11.6 µM [rising, partial curve].

In the case of `O=c1n(Cc2ccccc2Cl)c2sc3c(c2c2ncnn12)CCCC3`, the cell number change turned out to be 8.57%. Besides, the concentration at half-maximal activity (AC50) under setting [2] was 1.3 µM [rising, partial curve].

`Cc1cccc(N(CC(=O)NC2CCCC2)C(=O)CCC(=O)Nc2cc(C)on2)c1`: the cell number change was found to be 0.87%. In addition, under setting [2], the AC50 is 0.651 µM [rising, partial curve, poor fit].
